For at least one compound, name, drawing or mass did not settle the structure.
Assay: Long-term (1 month at −20° C. and −80° C.) stability in untreated human saliva
Conditions: −80° C. Storage, QC-High, nominal 800 ng/mL

With `C[C@H](CCC(=O)O)[C@H]1CC[C@H]2[C@@H]3CC[C@@H]4C[C@H](O)CC[C@]4(C)[C@H]3CC[C@]12C` [Lithocholic Acid, Lithocholic acid] the “Difference from Fresh (%)” value was −13.4%.

— patent US20200138854A1, “Method of Detecting and Quantifying Bile Acid from Saliva” (Ironwood Pharmaceuticals, Inc., priority 2017, published 2020)
